Here are results for 59 compounds from PubChem BioAssay AID2685 (National Center for Advancing Translational Sciences (NCATS), 2010).

Some of the results follow. Shown are side measurements of this screen, not its main read-out; they come without a call. The list favours compounds with an active or inconclusive main result. Words in brackets tell the shape of the fitted curve; partial curves, single points and poor fits give uncertain potencies.

Usually AC50 stands for the concentration giving half of the maximal activity seen. Low readings indicate greater potency, high ones weaker potency.

This assay can be described thus: qHTS Assay for Lipid Storage Modulators in Drosophila S3 Cells.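 For cell number change: cells counted by Cell Tracker Red CMTPX staining in the red channel.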 As to conditions: BODIPY lipid droplet fluorescence, 18-24 h; for cell number change: measured here: cell count max response, cells fed with added oleic acid. The essentials: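 Drosophila S3 cells loaded with oleic acid (400 uM, as added) and compounds at several concentrations; lipid droplets imaged by 488-nm laser-scanning cytometry, 500–530 nm intensity and object ratio to cell channel. Percent activity normalized to 20 uM Triacsin C.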
(Quantitative high-throughput screening tests each substance at several concentrations.)

[1] abbreviates: measured here: cell number channel AC50, cells fed with added oleic acid.
Where [2] appears, read: measured here: lipid fluorescence (Fed channel) AC50, cells fed with added oleic acid.

Consider `CSCc1cc(N(C)C)nc(SCc2ccc(Cl)c(Cl)c2)n1`, for which the cell number change was -8.19%.
For the compound `FC(F)(F)c1cccc(NC(=S)N(CCCN2CCCC2)Cc2cccn2Cc2ccc(Cl)cc2)c1`, the cell number change was -87.1%. Also, the half-maximal activity concentration (AC50) under setting [1] was 20.6 µM [falling, single point]. The AC50 under setting [2] was 20.6 µM [falling, single point].
With `O=C(Nc1ccccc1-c1ccccc1)c1cccc([N+](=O)[O-])c1`, the cell number change was found to be 4.34%. Besides, the AC50 under setting [2] is 6.51 µM [rising, single point].
Take `CCOc1ccc(NC(=O)C2CCN(S(=O)(=O)c3ccc4c(c3)CC(C)N4C(C)=O)CC2)cc1` (stereo not given): the cell number change was -18.5%. For the same compound, under setting [2], the AC50 is 0.0184 µM [rising, single point].
For the compound `Cc1ccc(C(O)c2ccncc2)cc1` (stereo not given), the cell number change worked out at 15.1%. In addition, under setting [2], the AC50 was 0.731 µM [falling, full curve].
Take `CCOC(=O)n1c(SCC(=O)N(CC)CC)nc2ccccc21`: the AC50 was 6.51 µM [rising, single point] under setting [1] and 7.31 µM [rising, partial curve] under setting [2].
Turning to `CCCCNC1CCS(=O)(=O)C1` (stereo not given), the cell number change was -78.1%. Further, the AC50 under setting [1] is 29.1 µM [falling, single point].
With `O=C(CC1C(=O)NCCN1Cc1cccc(F)c1)NC1CCCCCC1` (stereo not given), the cell number change was found to be 35.5%. Also, under setting [1], the AC50 was 29.1 µM [rising, single point]. Under setting [2], the concentration at half-maximal activity (AC50) is 20.6 µM [rising, single point].
As to `CC(OC(=O)c1cccc(S(=O)(=O)N2CCN(C)CC2)c1)C(=O)Nc1ccc(C(N)=O)cc1` (stereo not given), the cell number change amounted to 2.26%. The half-maximal activity concentration (AC50) under setting [2] was 1.46 µM [falling, partial curve, poor fit].
Regarding `CCOC(=O)c1cnc(SCC(=O)OCC(=O)NC2CCS(=O)(=O)C2)nc1N` (stereo not given), the cell number change was determined as 6.12%. Also, the concentration at half-maximal activity (AC50) under setting [2] is 2.91 µM [falling, full curve].
On to `CCOc1ccc(-c2noc(COC)n2)cc1OC`, for which the AC50 under setting [1] was 1.03 µM [rising, full curve].
`COc1ccc(CCC(C)N(C)Cc2ccccc2)cc1` (stereo not given): the cell number change was found to be 2.2%. Also, under setting [2], the half-maximal activity concentration (AC50) is 29.1 µM [rising, partial curve, poor fit].
Take `O=C(NCCN1CCOCC1)c1cc2cc(Br)ccc2oc1=O`: the cell number change was determined as 25.5%.
In the case of `O=C1/C(=C/c2ccc([N+](=O)[O-])cc2)CCc2ccccc21`, the cell number change was determined as 21.9%. Besides, the AC50 under setting [2] was 0.517 µM [rising, full curve].
`Cc1nc2c(Br)c(C)nn2c2c1CCC2`: the cell number change was 11.3%.
As to `C=CCn1c(SCC(=O)NC)nnc1C12CC3CC(CC(C3)C1)C2`, the cell number change is -21.2%. Moreover, under setting [2], the half-maximal activity concentration (AC50) is 0.0291 µM [falling, full curve, poor fit].
In the case of `O=C(Cn1ccc(NC(=O)OCc2ccccc2)nc1=O)NCc1ccc2c(c1)OCO2`, the cell number change is -13%. Moreover, the half-maximal activity concentration (AC50) under setting [2] is 2.06 µM [falling, single point].
As for `CCOc1ccc(C(=O)NC2CCN(CC(=O)NCc3ccccc3)CC2)cc1`, the cell number change stood at 10.5%. Moreover, under setting [2], the concentration at half-maximal activity (AC50) was 23.1 µM [rising, partial curve].
Consider `Cc1cc(C)n(-c2ccc(C(=O)OCc3ccccc3)cc2)n1`, for which the cell number change was 13.4%. For the same compound, under setting [2], the concentration at half-maximal activity (AC50) is 5.8 µM [rising, partial curve].
Consider `Cc1ccc2nc(SC(C)C(=O)N3CCCCC3)[nH]c2c1` (stereo not given), for which the cell number change stood at 1.64%.
On to `CCOC(=O)c1c(-c2cccc3ccccc23)csc1NC(=O)C1C2CCC(O2)C1C(=O)O` (stereo not given), for which the cell number change was -21.7%. For the same compound, the AC50 under setting [2] is 1.3 µM [falling, full curve, poor fit].
For `CCn1c(COc2ccccc2)nnc1SCC(=O)Nc1cc(C)ccc1OC`, the cell number change is -14.6%. Also, the half-maximal activity concentration (AC50) under setting [2] was 18.4 µM [falling, single point].
For `CCc1ccc(N(CC(=O)NCc2cccnc2)S(=O)(=O)c2ccccc2)cc1`, the cell number change was 9.19%.
Turning to `Cc1cc(C)n(CC(=O)c2ccc(Br)cc2)c(=O)c1C#N`, the cell number change turned out to be 26.1%. Further, under setting [2], the half-maximal activity concentration (AC50) was 0.651 µM [falling, single point].
Regarding `CCCCN(Cc1cccs1)S(=O)(=O)c1csc(C(N)=O)c1`, the cell number change is -18.1%. For the same compound, under setting [2], the AC50 was 29.1 µM [rising, single point].
As for `COC(=O)c1cccc(C23CC4(C2)[C@H](CN(CC2CCCCC2)[C@@H]4c2ccccc2)C3c2ccccc2)c1` (stereo not given in full), the cell number change was -64.8%. Further, the AC50 under setting [1] was 20.6 µM [falling, partial curve]. Further, the AC50 under setting [2] was 16.4 µM [falling, partial curve, poor fit].
`COc1ccc(C(=O)Nc2cc(-c3ccccc3)nn2-c2ccccc2F)cc1`: the cell number change came to 41.2%. The AC50 under setting [1] is 18.4 µM [rising, partial curve]. The half-maximal activity concentration (AC50) under setting [2] is 16.4 µM [rising, partial curve].
With `COC(=O)c1ccc(CN2CCCC(C(=O)Nc3ccc(-c4ccn[nH]4)cc3)C2)cc1` (stereo not given), the cell number change is 49.6%. The concentration at half-maximal activity (AC50) under setting [1] is 2.91 µM [rising, full curve]. In addition, the AC50 under setting [2] is 18.4 µM [rising, partial curve].
With `CC(C)(C)NC(=O)NC(=O)COC(=O)c1ccc(OC(F)(F)F)cc1`, the cell number change is -33.2%. Besides, under setting [1], the AC50 is 14.6 µM [falling, single point]. In addition, under setting [2], the concentration at half-maximal activity (AC50) was 16.4 µM [falling, single point].
`CC1=C(C(=O)OC(C)C)C(c2ccc(Br)s2)NC(=O)N1` (stereo not given): the cell number change is -18.6%. In addition, the AC50 under setting [2] is 16.4 µM [rising, partial curve].
With `CCN1CCN(c2ccc(S(=O)(=O)N3CCOCC3)cc2NC(=O)c2sccc2C)CC1`, the cell number change turned out to be 36.2%. Also, the AC50 under setting [1] was 9.2 µM [rising, partial curve, poor fit]. Under setting [2], the AC50 is 2.91 µM [rising, full curve, poor fit].
`O=S(=O)(Nc1cccc(-c2cn3cccnc3n2)c1)c1ccc(F)cc1`: the cell number change is 15.6%.
With `O=C(NCc1ccco1)/C(=C/c1cccnc1)NC(=O)c1cccc(Br)c1`, the cell number change was -14.8%. Under setting [2], the half-maximal activity concentration (AC50) is 0.092 µM [falling, full curve, poor fit].
In the case of `O=S(=O)(NC1=NCCC1)c1ccc(F)cc1`, the AC50 under setting [2] was 23.1 µM [falling, partial curve].
Take `Clc1ccc2oc(-c3cccnc3NCc3ccccc3)nc2c1`: the cell number change was found to be 2.99%. Further, the AC50 under setting [1] was 0.0461 µM [rising, single point]. Besides, under setting [2], the half-maximal activity concentration (AC50) is 0.651 µM [rising, partial curve, poor fit].
For the compound `CC(=O)N1CCOc2ccc(S(=O)(=O)NCC3CCC(C(=O)Nc4ccc(C)cn4)CC3)cc21` (stereo not given), the cell number change is -25.4%. Under setting [1], the AC50 was 0.184 µM [falling, full curve, poor fit]. Moreover, the AC50 under setting [2] is 20.6 µM [falling, single point].
In the case of `COc1cc(NC(=O)c2ccc(Cl)cc2Cl)ccc1-c1cc2ccccc2oc1=O`, the cell number change was -13.7%.
As to `COc1ccccc1NC(=O)c1nn(-c2ccccc2)ccc1=O`, the cell number change turned out to be 41.9%. Moreover, under setting [1], the half-maximal activity concentration (AC50) is 29.1 µM [rising, single point].
Take `Cc1cc(C)cc(CC2CC(=O)N(c3ccc4c(c3)OCCO4)C2=O)c1` (stereo not given): the cell number change came to 14.5%. Further, the concentration at half-maximal activity (AC50) under setting [2] is 18.4 µM [rising, single point].
Turning to `CCn1nc(NC(=O)COC)c2cc3cccc(C)c3nc21`, the cell number change worked out at 23.4%. Moreover, the AC50 under setting [1] is 0.651 µM [rising, full curve, poor fit].
With `O=C(NCCc1ccccc1)C1CCN(C(=O)c2sccc2-n2cccc2)CC1`, the cell number change amounted to 43.7%. In addition, the half-maximal activity concentration (AC50) under setting [1] was 13 µM [rising, partial curve, poor fit]. Moreover, the AC50 under setting [2] was 16.4 µM [rising, partial curve].
Regarding `Cc1ccc(S(=O)(=O)NCCc2nnc3ccc(SCc4cccnc4)nn23)cc1`, the cell number change worked out at 25.5%. Further, the AC50 under setting [2] was 6.51 µM [rising, single point].
Regarding `COc1cccc(C2CC(c3ccc(Br)cc3)=NN2C(=O)c2ccncc2)c1OC` (stereo not given), the cell number change was -0.701%. The concentration at half-maximal activity (AC50) under setting [2] is 29.1 µM [falling, single point].
Take `COc1ccc(S(=O)(=O)NCc2ccc(F)cc2)cc1OC`: the cell number change came out at 1.54%. Besides, the AC50 under setting [2] was 5.62 µM [falling, single point].
`NS(=O)(=O)c1ccc(NC(=O)CSc2n[nH]c(=O)n2Cc2ccccc2)cc1`: the cell number change was found to be 8.82%. Further, under setting [1], the concentration at half-maximal activity (AC50) was 6.51 µM [rising, single point]. Also, under setting [2], the AC50 was 3.66 µM [rising, single point].
Take `CCOC(=O)c1cnc(SCC(=O)NNC(=O)c2ccco2)nc1N`: the cell number change was 4.35%.
Take `O=C(/C=C/C=C/c1ccccc1)c1ccco1`: the cell number change is 40.4%. Further, the AC50 under setting [1] is 29.1 µM [rising, single point]. Besides, under setting [2], the concentration at half-maximal activity (AC50) was 29.1 µM [rising, single point].
Take `N#C/C(=C\c1ccc(F)cc1F)S(=O)(=O)c1ccccn1`: the cell number change came out at 18.9%. Further, the concentration at half-maximal activity (AC50) under setting [1] was 0.146 µM [falling, full curve, poor fit]. Also, under setting [2], the AC50 was 0.461 µM [falling, single point].
As for `CCC(C)c1ccc(NC(=S)N2CCCC2)cc1` (stereo not given), the cell number change is -0.867%.
Consider `COc1ccc(OC)c(C(C)NC(C)=O)c1` (stereo not given), for which the cell number change worked out at 2.1%. For the same compound, the concentration at half-maximal activity (AC50) under setting [2] was 0.00517 µM [falling, full curve, poor fit].
Take `CSCCC(NC(=O)c1cccc(C)c1)C(=O)O` (stereo not given): the cell number change was found to be 14.9%. For the same compound, the AC50 under setting [2] is 0.00651 µM [falling, full curve, poor fit].
In the case of `O=C(Nc1cccc(Cl)c1N1CCCCC1)c1ccc(N2CCOCC2)c([N+](=O)[O-])c1`, the cell number change is -1.61%. The half-maximal activity concentration (AC50) under setting [2] was 0.731 µM [rising, single point].
In the case of `O=C(COc1ccccc1)Nc1nc(-c2cccnc2)cs1`, the cell number change is -4.02%. Further, the AC50 under setting [2] was 0.517 µM [rising, partial curve].
Turning to `O=c1c2ccccc2ncn1C1CCCCC1`, the cell number change is -1.5%. For the same compound, the AC50 under setting [2] was 14.6 µM [rising, partial curve].
For `C/C(=N/O)c1ccc(N2C(=O)C3C4C=CC(C3C2=O)C2C3C(=O)N(c5ccc(/C(C)=N/O)cc5)C(=O)C3C42)cc1` (stereo not given), the cell number change stood at 1.47%. For the same compound, the AC50 under setting [1] is 0.0058 µM [falling, full curve, poor fit]. Besides, the AC50 under setting [2] was 0.0058 µM [falling, full curve, poor fit].
As to `CCCn1c(CN2CCCCC2C)nc2c1c(=O)n(C)c(=O)n2C` (stereo not given), the cell number change worked out at 3.25%. For the same compound, the half-maximal activity concentration (AC50) under setting [2] is 0.651 µM [falling, single point].
With `COc1ccc(C(=O)C2CCN(CC(=O)NCc3ccccc3)CC2)cc1`, the cell number change worked out at 8.82%.
Regarding `Cc1nn(-c2ccccc2)c(C)c1C=O`, the cell number change was -6.94%. Besides, the AC50 under setting [2] is 0.164 µM [falling, full curve].
For the compound `N/C(=N\OS(=O)(=O)c1cc(Cl)ccc1Cl)c1ccncc1`, the cell number change was -140%. For the same compound, the AC50 under setting [1] is 29.1 µM [falling, single point].
